Drawing on PMC3715419, this text covers binding for one molecule.

These are yes or no findings as the source states them, for the method shown.

One assay deals with T1, MUS-81 (C. elegans) (UniProt P91153).
T1 sequence: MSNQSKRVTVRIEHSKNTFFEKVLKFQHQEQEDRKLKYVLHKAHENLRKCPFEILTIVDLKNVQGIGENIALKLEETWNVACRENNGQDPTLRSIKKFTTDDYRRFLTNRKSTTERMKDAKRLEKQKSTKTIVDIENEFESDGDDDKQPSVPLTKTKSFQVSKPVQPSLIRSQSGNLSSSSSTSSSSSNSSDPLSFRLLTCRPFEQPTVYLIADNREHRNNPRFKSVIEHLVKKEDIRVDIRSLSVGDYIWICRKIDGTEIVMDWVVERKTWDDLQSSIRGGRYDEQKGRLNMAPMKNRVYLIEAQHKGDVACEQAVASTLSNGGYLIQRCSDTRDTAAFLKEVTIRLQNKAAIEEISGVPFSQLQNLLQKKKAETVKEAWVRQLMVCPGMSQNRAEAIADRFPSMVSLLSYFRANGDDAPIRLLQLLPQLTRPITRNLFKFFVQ
The assay can be described thus: two-hybrid; matrix-based, all pair-wise combinations; Gal4 DB-X (pVV212) in MATalpha Y8930 mated with AD-Y (pVV213) in MATa Y8800; diploids scored by growth on SC-Leu-Trp-His plates at 30°C; vector alone as negative control.

A further assay addresses T2, SLX-1 (C. elegans) (UniProt P91351).
T2 sequence: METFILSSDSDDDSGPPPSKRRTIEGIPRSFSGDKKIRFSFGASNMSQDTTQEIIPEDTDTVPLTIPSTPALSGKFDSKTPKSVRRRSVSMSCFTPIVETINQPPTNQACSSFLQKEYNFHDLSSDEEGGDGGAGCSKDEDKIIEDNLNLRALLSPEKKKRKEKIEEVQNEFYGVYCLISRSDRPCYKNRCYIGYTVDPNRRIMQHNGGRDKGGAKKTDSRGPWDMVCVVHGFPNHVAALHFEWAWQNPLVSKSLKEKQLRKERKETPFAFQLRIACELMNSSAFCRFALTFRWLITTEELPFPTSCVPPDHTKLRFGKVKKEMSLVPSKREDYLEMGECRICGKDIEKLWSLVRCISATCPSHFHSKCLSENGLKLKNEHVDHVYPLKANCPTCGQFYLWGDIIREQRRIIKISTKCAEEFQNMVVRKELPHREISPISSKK
The description is as above.

B1: GEN-1 (protein, UniProt Q22418 1-434)
chain: MTINGIWEWANHVVRKVPNETMRDKTLSIDGHIWLYESLKGCEAHHQQTPNSYLVTFFTRIQRLLELKIIPIVVFDNINASSSAHESKDQNEFVPRKRRSFGDSPFTNLVDHVYKTNALLTELGIKVIIAPGDGEAQCARLEDLGVTSGCITTDFDYFLFGGKNLYRFDFTAGTSSTACLHDIMHLSLGRMFMEKKVSRPHLISTAILLGCDYFQRGVQNIGIVSVFDILGEFGDDGNEEIDPHVILDRFASYVREEIPARSEDTQRKLRLRRKKYNFPVGFPNCDAVHNAITMYLRPPVSSEIPKIIPRAANFQQVAEIMMKECGWPATRTQKELALSIRRKVHLTTTVAQTRIPDFFAATKSKNFTPIVEPCESLEDYISANNTWMRKRKRSESPQILQHHAKRQVPDRKRSVKIRAFKPYPTDVIELGDSD
For the molecule B1, the binding result in the assay with MUS-81 (C. elegans) and with SLX-1 (C. elegans) was “no binding” each time.
